Laboratory results reported in patent US20060062777A1.
No constants are given. Whether binding was seen depends on the method and setting. Some binding calls cover weakened binding; strength is not graded here.

The chains behind the UniProt entries cited, without tags or fusion partners. Residues count along the entry.
UniProt P14780, residues 20-707: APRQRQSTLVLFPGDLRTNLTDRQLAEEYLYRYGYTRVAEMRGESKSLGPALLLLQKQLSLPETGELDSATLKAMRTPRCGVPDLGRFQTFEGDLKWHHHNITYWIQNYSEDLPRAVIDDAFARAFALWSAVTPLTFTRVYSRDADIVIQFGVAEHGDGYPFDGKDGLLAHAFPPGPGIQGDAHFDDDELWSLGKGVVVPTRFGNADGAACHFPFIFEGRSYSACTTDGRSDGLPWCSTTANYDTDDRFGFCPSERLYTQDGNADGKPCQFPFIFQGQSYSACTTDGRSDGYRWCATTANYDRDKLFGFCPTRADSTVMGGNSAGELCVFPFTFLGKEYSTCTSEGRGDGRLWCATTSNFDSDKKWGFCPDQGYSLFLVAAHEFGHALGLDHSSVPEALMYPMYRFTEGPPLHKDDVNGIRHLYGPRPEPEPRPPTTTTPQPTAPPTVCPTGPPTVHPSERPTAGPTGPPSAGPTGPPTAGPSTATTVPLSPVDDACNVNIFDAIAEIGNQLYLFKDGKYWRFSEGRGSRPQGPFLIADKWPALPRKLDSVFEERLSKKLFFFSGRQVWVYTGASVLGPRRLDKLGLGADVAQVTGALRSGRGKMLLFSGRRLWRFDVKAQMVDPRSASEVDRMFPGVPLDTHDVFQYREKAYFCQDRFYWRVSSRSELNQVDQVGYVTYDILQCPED

How the values were obtained:
[1] = target: Recombinant human MMP-9 (human) (UniProt P14780); test: summary of the examples
[2] = target: Recombinant human MMP-9 (human) (UniProt P14780); test: solid phase binding assay

**Q.** Which results are given for CRLRSGEPQC [FRIP-1 synthetic peptide]?
**A.** binding [1]: binds; binding [2]: binds
